Inconclusive results, whose numbers are uncertain, are shown with a selection of clear calls. Where the call is inconclusive, the potency comes from a doubtful curve fit. Active and inactive are the calls of the source. Calls come from the whole dose curve; as a rule, active = well fitted cell-killing curve with a large enough effect; inconclusive = small, poorly fitted or top-dose-only effect, or effect the other way; inactive = no such curve, though single readings can be large or run the other way.
experiment: Quantitative High-Throughput drug screen in 47 multiple myeloma cell lines against the NCATS MIPE library collection: OCIMY1_PLB cell viability assay (AID 1918979); conditions: OCI-MY1 myeloma viability, CellTiter-Glo ATP, 48 h; series mostly up to 45.8 µM; note: nearly all actives have a fitted effect of over 35% in size
From the text: PI: Beverly A. Mock Ph.D.
Laboratory of Cancer Biology and Genetics,
Center for Cancer Research, National Cancer Institute,
National Institute of Health, Bethesda, Maryland
Drug resistance and disease progression are common in multiple myeloma (MM) patients, underscoring the need for new therapeutic combinations. […] We hypothesized that effective combinations would reduce MYC expression and enhance p16 activity. […] These preclinical data identify potentially useful drug combinations for evaluation in drug-resistant MM and reveal potential mechanisms of combined drug sensitivity.
Described herein is the primary MIPE qHTS used to cherrypick compounds. Validated compounds were then further tested for potential synergistic activiy.
[1] Peat TJ, Gaikwad SM, Dubois W, Gyabaah-Kessie N, Zhang S, Gorjifard S, Phyo Z, Andres M, Hughitt VK, Simpson RM, Miller MA, Girvin AT, Taylor A, Williams D, D'Antonio N, Zhang Y, Rajagopalan A, Flietner E, Wilson K, Zhang X, Shinn P, Klumpp-Thomas C, McKnight C, Itkin Z, Chen L, Kazandijian D, Zhang J, Michalowski AM, Simmons JK, Keats J, Thomas CJ, Mock BA. Drug combinations identified by high-throughput screening promote cell cycle transition and upregulate Smad pathways in myeloma. Cancer Lett. 2023 Aug 1;568:216284. doi: 10.1016/j.canlet.2023.216284. Epub 2023 Jun 24. PMID: 37356470; PMCID: PMC10408729.
SEQUENCE No. (e.g., 1, 2, 3, etc.); […] (e.g., Cells, Incubation, Reagent, etc.); VALUE and DESCRIPTION.
1; Cells; 5 uL; white, solid bottom 1536-well Greiner assay plate.
2; Compounds; 23 nL; Kalypsis pin tool (Wako USA) equipped with a 1536-well pin head to transfer to the assay plates.
3; Incubation; 48 hours; 37C incubation.
4; Reagent;5uL; CellTiter Glo (Promega).
5; Detector; 425V; Luminescence; Viewlux PerkinElmer.
NOTES (numbers refer to Sequence numbers above)
1. The cell-based screening methods employed in this study were like those previously published. Briefly, the corresponding myeloma cell lines were screened in 1,536-well plates with 500 cells, 5-uL per well for inhibition of cell viability (assessed by measuring ATP levels with CellTiterGlo).
2. NCATS MIPE 4.0 library of approved and investigational drugs were added using the Kalypsis pin tool. Wells treated with DMSO only for 100% viability and media only for 0% viability were used as controls.
3. The assay plates were covered and incubated for 48 hours in a 37C, 5% CO2 incubator with controlled humidity.
4. After 48 hours, CellTilter-GloTM luminescent substrate mix (Promega) reagent was added to the assay plate and plates we incubated for 5 min at room temperature.
5. Signal was measured as median relative luminescence units on a ViewLux (PerkinElmer) multiplate reader.
[1] Heske CM, Davis MI, Baumgart JT, Wilson K, Gormally MV, Chen L, Zhang X, Ceribelli M, Duveau DY, Guha R, Ferrer M, Arnaldez FI, Ji J, Tran HL, Zhang Y, Mendoza A, Helman LJ, Thomas CJ. Matrix Screen Identifies Synergistic Combination of PARP Inhibitors and Nicotinamide Phosphoribosyltransferase (NAMPT) Inhibitors in Ewing Sarcoma. Clin Cancer Res. 2017 Dec 1;23(23):7301-7311. doi: 10.1158/1078-0432.CCR-17-1121. Epub 2017 Sep 12. PMID: 28899971; PMCID: PMC6636827.
Potency is the fitted concentration of half-maximal effect.

SMILES | Potency
Nc1ncnc2c1ncn2[C@@H]1O[C@@H](CO)[C@H](O)[C@H]1O | inactive
CCOC1OC(=O)C[C@H]1NC(=O)[C@@H]1CCCN1C(=O)[C@@H](NC(=O)c1ccc(N)c(Cl)c1)C(C)(C)C (stereo not given in full) | inactive
CC1(C)CCC2=C(O1)c1ccccc1C(=O)C2=O | inconclusive: 37.2 µM [cytotoxic, single point]
CC[C@@]1(O)C[C@H](O[C@H]2C[C@H](N(C)C)[C@H](O[C@H]3C[C@H](O)[C@H](O[C@H]4CCC(=O)[C@H](C)O4)[C@H](C)O3)[C@H](C)O2)c2c(cc3c(c2O)C(=O)c2c(O)cccc2C3=O)[C@@H]1C(=O)OC | active: 1.66 µM
Oc1ccc(C2CCN(c3ccnc4ccccc34)CC2)cc1O | inconclusive: 37.2 µM [cytotoxic, single point]
O=C1C[C@@H](c2ccc(O)cc2)Oc2cc(O)cc(O)c21 | inactive
O=C(O)c1ccccc1C(=O)Nc1ccc(-c2ccccc2)cc1 | inconclusive: 0.0469 µM [rising, full curve, poor fit]
CCN(CC)C(=S)SSC(=S)N(CC)CC | active: 0.0235 µM
O=C1NC(=O)C(=Cc2ccc3nccnc3c2)S1 | inconclusive: 7.24 µM [cytotoxic, partial curve]
C[N+]1(C)[C@@H]2C[C@@H](OC(=O)C(O)(c3cccs3)c3cccs3)C[C@H]1[C@@H]1O[C@@H]12 | inactive
COc1cccc2c1CCCC2CCCN1CCN(C2CCCCC2)CC1 (stereo not given) | inconclusive: 37.2 µM [cytotoxic, single point]
O=C(Nc1cc2cc[nH]c2cn1)c1ccccc1 | inconclusive: 8.33 µM [cytotoxic, partial curve]
O=C1CCCC2=C1C(c1[nH]ncc1Cl)N=C(Nc1nc3ccccc3o1)N2 (stereo not given) | inactive
CCC[C@@H]1C[C@@H](C(=O)N[C@@H]([C@H]2O[C@H](SC)[C@H](O)[C@@H](O)[C@H]2O)[C@@H](C)O)N(C)C1 | inconclusive: 0.001 µM [cytotoxic]
COCCCN1CCC(NC(=O)c2cc(Cl)c(N)c3c2OCC3)CC1 | inconclusive: 0.001 µM [cytotoxic]
Cc1cc(OCCCc2c(C(=O)O)n(Cc3cccnc3)c3c(-c4c(COc5ccc(N6CCN([S+](C)(=O)[O-])CC6)cc5)nn(C)c4C)cccc23)cc(C)c1Cl | active: 13.2 µM
O=C(NCc1ccccc1)c1csc(Nc2ccncn2)n1 | active: 20.9 µM
OC[C@H]1O[C@@H](n2cnc3c2NC=NC[C@@H]3O)C[C@H]1O | inactive
CC(C)[C@H](CO)Nc1nc(Nc2ccc(C(=O)O)c(Cl)c2)c2ncn(C(C)C)c2n1 | inconclusive: 33.2 µM [cytotoxic, single point]
CC(C=CC1=C(C)CCCC1(C)C)=CC=CC(C)=CC(=O)O | inconclusive: 33.2 µM [cytotoxic, single point]

SMILES | Potency
O=C(Nc1ccc(OC(F)(F)F)cc1)c1sccc1NCc1ccnc2ccccc12 | inconclusive: 23.5 µM [cytotoxic, partial curve]
COC(=O)Nc1ccc(-c2nc(N3CCOCC3)c3cnn(C4CCN(C(=O)OC)CC4)c3n2)cc1 | active: 5.26 µM
Cc1cccc(Nc2nc(-c3ccncc3)cs2)c1 | inconclusive: 0.0042 µM [rising, full curve]
Cn1ccc2cc3c(cc21)CCN3C(=O)Nc1cccnc1 | inconclusive: 10.5 µM [rising, single point]
CNC1CCCN(c2c(F)cc3c(=O)c(C(=O)O)cn(C4CC4)c3c2OC)C1 (stereo not given) | inactive
CCCCc1ccc2nc(NC(=O)OC)[nH]c2c1 | inconclusive: 0.0132 µM [cytotoxic, full curve]
CCOC(=O)N1CCN([N+]([O-])=NOc2ccc([N+](=O)[O-])cc2[N+](=O)[O-])CC1 | active: 7.43 µM
O=c1c(-c2ccc(O)cc2)coc2cc(O[C@@H]3O[C@H](CO)[C@H](O)[C@H](O)[C@H]3O)ccc12 | inactive
Oc1ccc(C=Cc2cc(O)cc(O)c2)cc1 | inactive
NC(=O)Cc1cccc(C(=O)c2ccccc2)c1N | inconclusive: 0.332 µM [cytotoxic, full curve, poor fit]
CC1=C(C)C(=O)C(C(CCCCCC(=O)O)c2ccccc2)=C(C)C1=O (stereo not given) | inconclusive: 0.0019 µM [rising, full curve]
O=C1CCc2ccc(OCCCCN3CCN(c4cccc(Cl)c4Cl)CC3)cc2N1 | inactive
C[C@H](NC(=O)C(=O)Nc1ccccc1C(C)(C)C)C(=O)N[C@@H](CC(=O)O)C(=O)COc1c(F)c(F)cc(F)c1F | inconclusive: 10.5 µM [cytotoxic, partial curve]
N#CC1(c2ccc(NC(=O)c3cccnc3NCc3ccncc3)cc2)CCCC1 | inactive
Clc1ccc2nsnc2c1NC1=NCCN1 | inactive
CN(Cc1cc(Br)cc(Br)c1N)C1CCCCC1 | inconclusive: 0.0093 µM [rising, full curve, poor fit]
O=C(N[C@@H](c1ccccc1)[C@@H]1CCCCN1)c1cccc(C(F)(F)F)c1Cl | inconclusive: 37.2 µM [cytotoxic, single point]
O=C(O)c1cc(=O)c2c(OCC(O)COc3cccc4oc(C(=O)O)cc(=O)c34)cccc2o1 | inconclusive: 0.0017 µM [rising, full curve, poor fit]
Nc1ccccc1NC(=O)c1ccc(CNC(=O)OCc2cccnc2)cc1 | active: 4.69 µM
Cc1[nH]c(=O)c(C#N)cc1-c1ccc2nccn2c1 | inconclusive: 0.0015 µM [rising, full curve, poor fit]

Sorted by length of the SMILES (falling): part of the list above.
SMILES | Potency
NC(=O)Cc1cccc(C(=O)c2ccccc2)c1N | inconclusive: 0.332 µM [cytotoxic, full curve, poor fit]
Oc1ccc(C=Cc2cc(O)cc(O)c2)cc1 | inactive
Clc1ccc2nsnc2c1NC1=NCCN1 | inactive
